Laboratory results as given in publication PMC7887271, “Fast acting allosteric phosphofructokinase inhibitors block trypanosome glycolysis and cure acute African trypanosomiasis in mice” (Nature Communications, 2021).
“And” between values parts separate entries of the source, which are not always exact repeats. Equal entries are not always repeated. The source gives many values for each of these; only a part stands here.

Target: T1, TbPFK (Trypanosoma brucei brucei, UniProt O15648)
T1 construct: made in house; host or cells: Escherichia coli C41 (pET28a, codon optimised gene)
T1 sequence (O15648 1-487): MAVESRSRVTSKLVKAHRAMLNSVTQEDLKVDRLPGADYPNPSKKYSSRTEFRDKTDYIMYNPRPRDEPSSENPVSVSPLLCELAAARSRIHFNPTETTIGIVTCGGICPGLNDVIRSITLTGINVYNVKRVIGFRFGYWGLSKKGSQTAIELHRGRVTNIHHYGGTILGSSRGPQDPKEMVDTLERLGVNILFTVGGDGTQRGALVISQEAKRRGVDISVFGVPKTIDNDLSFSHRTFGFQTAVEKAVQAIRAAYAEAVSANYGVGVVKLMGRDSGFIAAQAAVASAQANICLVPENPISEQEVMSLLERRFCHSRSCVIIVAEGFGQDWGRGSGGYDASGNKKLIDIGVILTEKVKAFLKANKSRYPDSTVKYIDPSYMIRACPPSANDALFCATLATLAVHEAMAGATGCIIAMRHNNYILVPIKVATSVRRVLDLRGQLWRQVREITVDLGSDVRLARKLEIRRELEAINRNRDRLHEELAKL
Assay: ALDO/G3PDH/TIM linked enzyme assay for measuring PFK inhibition
Assay type: biochemical
Set-up: key: absorbance at 340 nm (NADH)
Protocol: In the PFK/PYK/LDH assay, the linked PYK activity acts to convert the ADP produced by PFK back to ATP. As ATP is an inhibitor of human PFK (but not TbPFK) at concentrations higher than ~0.5 mM the regeneration of ATP is likely to affect the assay readout. An alternative linked assay was therefore developed using PFK/aldolase (ALDO)/glycerol-3-phosphate dehydrogenase (G3PD)/triosephosphate isomerase (TIM). In this assay F16BP produced by PFK is subsequently converted by aldolase into dihydroxyacetone phosphate (DHAP) and glyceraldehyde 3-phosphate (GA3P). TIM interconverts GA3P and DHAP, and DHAP is reduced to glycerol 3-phosphate by G3PD, alongside the oxidation of NADH to NAD^+, which was measured by observing the change in UV absorbance at 340 nm for 10 minutes at 25° C using a Spectramax© M5 Multimode plate reader.
The assay buffer consisted of 50 mM TEA, 100 mM KCl, 10 mM MgCl2, 10% glycerol, 1 mM Tris(2-carboxyethyl)phosphine (TCEP), pH 7.4. Assay mix consisted of 5 U/ml G3PD (Sigma-Aldrich G6880), 2.5 U/ml ALDO (Sigma-Aldrich A2714), 25 U/ml TIM (Sigma-Aldrich T6258), and 1.25 mM NADH. ATP and F6P were obtained from Sigma-Aldrich (A2383 and F3627, respectively). All ligands and substrates (including ATP) were used at pH 7.4). 40 µl of assay mix, followed by 45 µl assay buffer, 4 µl of 0.1 mg/ml PFK and 1 µl of 100x serially diluted inhibitors were added to a non-binding, clear 96-well plate (Greiner Bio-One 655901) and incubated at RT for 10 minutes. The reaction was started by addition of 10 µl of 6 mM F6P (Supplementary Table 1).

For `CN(C)CCn1ccc2c(ccn2Cc2ccc(Cl)c(Cl)c2)c1=O` [CTCB 405], the “TbPFK reaction time course reading (Figure 6a)” value (0.02 uM CTCB 405, time 0.0173611) was 0.6954 and 0.6527, the “TbPFK reaction time course reading (Figure 6a)” value (0.02 uM CTCB 405, time 0.0347222) was 0.668 and 0.6264 and the “TbPFK reaction time course reading (Figure 6a)” value (0.02 uM CTCB 405, time 0.0520833) was 0.6421 and 0.6005. For the same compound, the “TbPFK reaction time course reading (Figure 6a)” value (0.02 uM CTCB 405, time 0.0694444) was 0.6155 and 0.5748, the “TbPFK reaction time course reading (Figure 6a)” value (0.02 uM CTCB 405, time 0.0868056) was 0.59 and 0.5512 and the “TbPFK reaction time course reading (Figure 6a)” value (0.02 uM CTCB 405, time 0.208333) was 0.4552 and 0.4221. For the same compound, the “TbPFK reaction time course reading (Figure 6a)” value (0.02 uM CTCB 405, time 0.225694) was 0.4411 and 0.4086, the “TbPFK reaction time course reading (Figure 6a)” value (0.02 uM CTCB 405, time 0.243056) was 0.4276 and 0.3957 and the “TbPFK reaction time course reading (Figure 6a)” value (0.02 uM CTCB 405, time 0.260417) was 0.4151 and 0.3839. The “TbPFK reaction time course reading (Figure 6a)” value (0.02 uM CTCB 405, time 0.277778) was 0.4041 and 0.3729, the “TbPFK reaction time course reading (Figure 6a)” value (0.02 uM CTCB 405, time 0.295139) was 0.393 and 0.3626 and the “TbPFK reaction time course reading (Figure 6a)” value (0.02 uM CTCB 405, time 0.3125) was 0.3829 and 0.3531. For the same compound, the “TbPFK reaction time course reading (Figure 6a)” value (0.02 uM CTCB 405, time 0.329861) was 0.3734 and 0.3443, the “TbPFK reaction time course reading (Figure 6a)” value (0.02 uM CTCB 405, time 0.347222) was 0.3647 and 0.3359 and the “TbPFK reaction time course reading (Figure 6a)” value (0.02 uM CTCB 405, time 0.364583) was 0.3566 and 0.3283. The “TbPFK reaction time course reading (Figure 6a)” value (0.02 uM CTCB 405, time 0.381944) was 0.3485 and 0.3209, the “TbPFK reaction time course reading (Figure 6a)” value (0.02 uM CTCB 405, time 0.399306) was 0.3417 and 0.3141 and the “TbPFK reaction time course reading (Figure 6a)” value (0.02 uM CTCB 405, time 0.416667) was 0.3347 and 0.3075. For the same compound, the “TbPFK reaction time course reading (Figure 6a)” value (0.05 uM CTCB 405, time 0.0173611) was 0.7223 and 0.6756, the “TbPFK reaction time course reading (Figure 6a)” value (0.05 uM CTCB 405, time 0.0347222) was 0.7007 and 0.6527 and the “TbPFK reaction time course reading (Figure 6a)” value (0.05 uM CTCB 405, time 0.0520833) was 0.6774 and 0.631. The “TbPFK reaction time course reading (Figure 6a)” value (0.05 uM CTCB 405, time 0.0694444) was 0.655 and 0.6101, the “TbPFK reaction time course reading (Figure 6a)” value (0.05 uM CTCB 405, time 0.0868056) was 0.634 and 0.5888 and the “TbPFK reaction time course reading (Figure 6a)” value (0.05 uM CTCB 405, time 0.208333) was 0.5056 and 0.4691. For the same compound, the “TbPFK reaction time course reading (Figure 6a)” value (0.05 uM CTCB 405, time 0.225694) was 0.4915 and 0.4552, the “TbPFK reaction time course reading (Figure 6a)” value (0.05 uM CTCB 405, time 0.243056) was 0.4792 and 0.4424 and the “TbPFK reaction time course reading (Figure 6a)” value (0.05 uM CTCB 405, time 0.260417) was 0.4665 and 0.4301. The “TbPFK reaction time course reading (Figure 6a)” value (0.05 uM CTCB 405, time 0.277778) was 0.4541 and 0.4185, the “TbPFK reaction time course reading (Figure 6a)” value (0.05 uM CTCB 405, time 0.295139) was 0.4426 and 0.4074 and the “TbPFK reaction time course reading (Figure 6a)” value (0.05 uM CTCB 405, time 0.3125) was 0.4316 and 0.3967. The “TbPFK reaction time course reading (Figure 6a)” value (0.05 uM CTCB 405, time 0.329861) was 0.4203 and 0.3871, the “TbPFK reaction time course reading (Figure 6a)” value (0.05 uM CTCB 405, time 0.347222) was 0.4095 and 0.3781 and the “TbPFK reaction time course reading (Figure 6a)” value (0.05 uM CTCB 405, time 0.364583) was 0.3992 and 0.3696. The “TbPFK reaction time course reading (Figure 6a)” value (0.05 uM CTCB 405, time 0.381944) was 0.3902 and 0.3609, the “TbPFK reaction time course reading (Figure 6a)” value (0.05 uM CTCB 405, time 0.399306) was 0.3817 and 0.3533 and the “TbPFK reaction time course reading (Figure 6a)” value (0.05 uM CTCB 405, time 0.416667) was 0.3738 and 0.3459. For the same compound, the “TbPFK reaction time course reading (Figure 6a)” value (0.43 uM CTCB 405, time 0.0173611) was 0.7862 and 0.7538, the “TbPFK reaction time course reading (Figure 6a)” value (0.43 uM CTCB 405, time 0.0347222) was 0.7839 and 0.7503 and the “TbPFK reaction time course reading (Figure 6a)” value (0.43 uM CTCB 405, time 0.0520833) was 0.7808 and 0.748. The “TbPFK reaction time course reading (Figure 6a)” value (0.43 uM CTCB 405, time 0.0694444) was 0.777 and 0.7459, the “TbPFK reaction time course reading (Figure 6a)” value (0.43 uM CTCB 405, time 0.0868056) was 0.7745 and 0.7417 and the “TbPFK reaction time course reading (Figure 6a)” value (0.43 uM CTCB 405, time 0.225694) was 0.7425 and 0.7133. For the same compound, the “TbPFK reaction time course reading (Figure 6a)” value (0.43 uM CTCB 405, time 0.243056) was 0.738 and 0.7079, the “TbPFK reaction time course reading (Figure 6a)” value (0.43 uM CTCB 405, time 0.260417) was 0.7348 and 0.7042 and the “TbPFK reaction time course reading (Figure 6a)” value (0.43 uM CTCB 405, time 0.277778) was 0.7295 and 0.6999. For the same compound, the “TbPFK reaction time course reading (Figure 6a)” value (0.43 uM CTCB 405, time 0.295139) was 0.7252 and 0.696, the “TbPFK reaction time course reading (Figure 6a)” value (0.43 uM CTCB 405, time 0.3125) was 0.7216 and 0.6905 and the “TbPFK reaction time course reading (Figure 6a)” value (0.43 uM CTCB 405, time 0.329861) was 0.7163 and 0.6868. The “TbPFK reaction time course reading (Figure 6a)” value (0.43 uM CTCB 405, time 0.347222) was 0.7115 and 0.6824, the “TbPFK reaction time course reading (Figure 6a)” value (0.43 uM CTCB 405, time 0.364583) was 0.7074 and 0.6774 and the “TbPFK reaction time course reading (Figure 6a)” value (0.43 uM CTCB 405, time 0.381944) was 0.7033 and 0.6732. For the same compound, the “TbPFK reaction time course reading (Figure 6a)” value (0.43 uM CTCB 405, time 0.399306) was 0.699 and 0.6691, the “TbPFK reaction time course reading (Figure 6a)” value (0.43 uM CTCB 405, time 0.416667) was 0.6942 and 0.6647 and the “TbPFK reaction time course reading (Figure 6a)” value (1.29 uM CTCB 405, time 0.0173611) was 0.8099 and 0.7689. For the same compound, the “TbPFK reaction time course reading (Figure 6a)” value (1.29 uM CTCB 405, time 0.0347222) was 0.8089 and 0.7697, the “TbPFK reaction time course reading (Figure 6a)” value (1.29 uM CTCB 405, time 0.0520833) was 0.8094 and 0.7682 and the “TbPFK reaction time course reading (Figure 6a)” value (1.29 uM CTCB 405, time 0.0694444) was 0.8092 and 0.769. The “TbPFK reaction time course reading (Figure 6a)” value (1.29 uM CTCB 405, time 0.0868056) was 0.8086 and 0.769, the “TbPFK reaction time course reading (Figure 6a)” value (1.29 uM CTCB 405, time 0.208333) was 0.804 and 0.7671 and the “TbPFK reaction time course reading (Figure 6a)” value (1.29 uM CTCB 405, time 0.225694) was 0.8037 and 0.7653. For the same compound, the “TbPFK reaction time course reading (Figure 6a)” value (1.29 uM CTCB 405, time 0.243056) was 0.8025 and 0.7652 and the “TbPFK reaction time course reading (Figure 6a)” value (1.29 uM CTCB 405, time 0.260417) was 0.8007 and 0.7645.
